Test results reported in patent publication WO2007042289A2 (dated 2007).
Results are given in words; binding and its absence hold for the method and conditions named. Some results given as binding are weak or reduced against the parent protein; the word gives no strength.

By UniProt entry, the sequences of proteins in these tests, tags left out. Residues count along the entry.
UniProt P08069, residues 31-932: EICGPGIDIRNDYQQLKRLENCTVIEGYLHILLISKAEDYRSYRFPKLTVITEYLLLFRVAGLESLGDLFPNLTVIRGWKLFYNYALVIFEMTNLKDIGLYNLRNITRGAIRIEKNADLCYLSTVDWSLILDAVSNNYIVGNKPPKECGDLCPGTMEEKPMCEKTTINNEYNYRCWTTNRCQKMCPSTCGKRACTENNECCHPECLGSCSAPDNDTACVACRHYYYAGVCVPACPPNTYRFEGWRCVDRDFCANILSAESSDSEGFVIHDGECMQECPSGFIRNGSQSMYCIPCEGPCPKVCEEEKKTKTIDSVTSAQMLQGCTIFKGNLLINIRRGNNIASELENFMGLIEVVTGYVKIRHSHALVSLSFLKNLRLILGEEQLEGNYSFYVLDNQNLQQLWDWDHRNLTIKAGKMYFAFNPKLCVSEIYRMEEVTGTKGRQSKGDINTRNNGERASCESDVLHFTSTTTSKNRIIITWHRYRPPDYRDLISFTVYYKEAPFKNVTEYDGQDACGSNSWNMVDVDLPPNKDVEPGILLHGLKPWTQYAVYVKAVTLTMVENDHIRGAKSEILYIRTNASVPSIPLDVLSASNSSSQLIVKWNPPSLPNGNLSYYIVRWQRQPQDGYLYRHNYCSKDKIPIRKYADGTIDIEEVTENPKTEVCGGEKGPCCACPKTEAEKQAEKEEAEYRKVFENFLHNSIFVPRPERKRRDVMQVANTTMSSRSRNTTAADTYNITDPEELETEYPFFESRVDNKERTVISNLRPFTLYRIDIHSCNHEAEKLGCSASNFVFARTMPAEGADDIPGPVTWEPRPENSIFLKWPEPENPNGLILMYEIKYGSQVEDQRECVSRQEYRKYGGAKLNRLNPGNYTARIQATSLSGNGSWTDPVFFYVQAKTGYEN

B1: PMP4B11 (VHH)
VHH: EVQLVESGGGLVQPGGSLRLSCAASGSIFTFNAMGWYRQAPGKQRELVAVIISGGSTHYVDSVKGRFTISRDNAKKMVYLQMNSLKPEDTAVYYCNVKKFGDYWGQGTQVTVSS
B2: PMP3G7 (VHH)
VHH: DVQLVESGGGLVQAGGSLRLSCAASESISTINVMAWYRQAPGKQRELVAEITRSGRTNYVDSVKGRFTISRDNAKNTMYLQMNSLNLEDTAVYYCRTIDGSWREYWGQGTQVTVSS
B3: PMP2C7 (VHH)
VHH: QVKLEESGGGLVQPGGSLRLSCVASGRTFSNYAMGWFRQAPGQEREFVAAINWNSRSTYYADSVKGRFTISRLNARNTVYLQMNRLKPEDTAVYDCAASHDSDYGGTNANLYDYWGQGTQVTVSS
B4: PMP1C7 (VHH)
VHH: QVKLEESGGGLVQAGGSLRLSCVASGRTFSRTAMAWFRQAPGKEREFVATITWNSGTTRYADSVKGRFFISKDSAKNTIYLEMNSLEPEDTAVYYCAATAAAVITPTRGYYNYWGQGTQVTVSS
notes: Anti-IGF-IR Nanobody; tag not described; also called IGFRPMP1C7

Target: T1, recombinant human IGF-IR (rhIGFIR) (human, UniProt P08069 31-932, limits assumed)
T1 construct: Bought; also called immobilized IGF-IR
Test: ELISA, periplasmic extracts on solid phase coated receptor

binding, binds:
B1
B2
B3
B4
